Out of some 330,000 compounds screened, about 7,700 (2.3%) were called active. The shares of active, inactive and inconclusive entries below differ from those in the screen. Calls follow the shape of the dose curve; as a rule, active = well fitted inhibition curve with a large enough effect; inconclusive = small, poorly fitted or top-dose-only effect, or effect the other way; inactive = flat fitted curve, though single readings scatter. Potencies beside an inconclusive call are fits to weak or partial responses and may not hold up.
Assay: qHTS screen for small molecules that inhibit ELG1-dependent DNA repair in human embryonic kidney (HEK293T) cells expressing luciferase-tagged ELG1; also: nearly all actives have a fitted effect of over 55% in size
Conditions: HEK293T ELG1-luciferase reporter, luminescence, 16 h, DNA damage induced by 5-fluorouridine; activity change, negative = inhibition: at 46.1 µM (top of the series)
Outline: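 HEK293T cells expressing luciferase-tagged ELG1 (2,000/well) received 5-Fluorouridine plus compound or DMSO for 16 hr at 37 °C. Luciferase was read by ONE-Glo luminescence after 30 min at room temperature.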
% is scaled to controls: 0 for no effect and ±100 for the full control effect; potency is read from the fitted curve at half-maximal effect.

Row | Structure (SMILES) | Potency | activity change, negative = inhibition
1 | COc1ccc(NC(=O)C2=CN3CCS(=O)(=O)N=C3C=C2)c(OC)c1 | inconclusive: 22.4 µM [activator, single point] | –
2 | Cc1ccnc(NC(=O)c2cc(-c3ccc(Cl)s3)nc3ccccc23)c1 | inconclusive: 18.3 µM [inhibitor, single point] | –
3 | Cc1ccc(OCC(=O)NNC(=O)c2ccco2)c(C)c1 | inconclusive: 20.6 µM [activator, single point] | –
4 | O=C(COc1ccccc1)NCC(c1ccco1)N1CCN(c2ccc(F)cc2)CC1 (configuration not stated) | inconclusive: 8.2 µM [inhibitor, single point] | –
5 | CCOc1ccc(CSc2nc(C)cc(COC)c2C#N)cc1OCC | inconclusive: 14.6 µM [inhibitor, partial curve, poor fit] | –
6 | O=C(Nc1ccc2oc(-c3ccccc3)nc2c1)c1ccc2c(c1)OCCO2 | inconclusive: 23.1 µM [inhibitor, single point] | –
7 | COc1cc(CNCc2cc(OC)ccc2OC)cc(OC)c1 | – | inactive: -12.6%
8 | COc1ccc(Nc2ncnc3ccccc23)cc1 | – | inactive: -5.03%
9 | Cc1ccc(C(=O)NCc2ccc(N3CCN(C(=O)OC(C)(C)C)CC3)cc2)cc1 | – | inactive: 1.18%
10 | CCOc1cc(N2CCOCC2)c(OCC)cc1NC(=O)c1cc(C)nc2ccccc12 | inconclusive: 20.6 µM [inhibitor, single point] | –
11 | CN(CCOc1ccc(Cl)cc1)C(=O)C1CCN(C(=O)c2ccc(F)cc2)CC1 | – | inactive: 0.926%
12 | COc1ccccc1N1CCN(CC(O)COCCOc2ccc(Br)cc2)CC1 (configuration not stated) | inconclusive: 23.1 µM [inhibitor, partial curve] | –
13 | COc1cc([C@@H]2c3cc4c(cc3[C@@H](O)[C@H]3COC(=O)[C@H]23)OCO4)cc(OC)c1O[Si](C)(C)C(C)(C)C | inconclusive: 18.3 µM [inhibitor, single point] | –
14 | Cc1csc(NC(=O)C2CCN(S(=O)(=O)c3ccccc3F)CC2)n1 | inconclusive: 16.4 µM [inhibitor, partial curve] | –
15 | Fc1ccc(C2=NNC(=NCc3ccccc3)SC2)cc1F | inconclusive: 14.6 µM [activator, partial curve, poor fit] | –
16 | C=CC[C@@H](CC(=O)NCCO)C(=O)N[C@@H](C)COC(=O)[C@@H](CC=C)Cc1ccc(F)cc1 | – | inactive: 10.2%
17 | NC(=O)c1cc(C(=O)c2ccc(Cl)cc2Cl)c[nH]1 | inconclusive: 18.3 µM [inhibitor, single point] | –
18 | Cc1ccc(NC(=O)COC(=O)c2ccc(Cl)cc2)cc1S(=O)(=O)N(C)C | inconclusive: 18.3 µM [activator, partial curve, poor fit] | –
19 | COCCn1c(CN2CCN(c3ccc(F)cc3)CC2)nc2c1c(=O)n(C)c(=O)n2C | inconclusive: 8.2 µM [inhibitor, partial curve] | –
20 | O=C(/C=C/c1ccccc1[N+](=O)[O-])NCCN1C(=O)S/C(=C\c2ccc(F)cc2)C1=O | inconclusive: 3.66 µM [activator, single point] | –
21 | CCN(c1ccc(C)c(C)c1)S(=O)(=O)c1ccc2c(c1)CCN2C(=O)CCC(=O)O | – | inactive: -2.69%
22 | O=C1C2CCCN2C(=S)N1Cc1ccccc1 (configuration not stated) | inconclusive: 29.1 µM [inhibitor, single point] | –
23 | COc1ccc(CCNC(=O)c2ccc(-c3ccc([N+](=O)[O-])cc3Cl)o2)cc1OC | active: 18.4 µM | –

Row | Structure (SMILES) | Potency | activity change, negative = inhibition
24 | CCC(=O)N1CCN=C1SCc1cccc(C(F)(F)F)c1 | inconclusive: 25.9 µM [activator, partial curve, poor fit] | –
25 | COc1ccc(CN(C(=O)c2ccco2)c2ccc(C)c(C)c2)cc1 | – | inactive: -15.5%
26 | O=C(COc1ccccc1F)Nc1c2c(nn1-c1ccccc1)CS(=O)(=O)C2 | – | inactive: 4.04%
27 | COc1ccc(CCNC(=O)Cn2c(-c3nonc3N)nc3ccccc32)cc1OC | inconclusive: 20.6 µM [inhibitor, partial curve] | –
28 | CCC(C)/C(C)=N/NC(=O)c1ccccc1OCCOc1ccccc1 (configuration not stated) | inconclusive: 14.6 µM [inhibitor, partial curve] | –
29 | COc1ccccc1Nc1ncccc1C(=O)NCc1ccccc1 | inconclusive: 25.9 µM [inhibitor, partial curve, poor fit] | –
30 | CC(=O)c1ccc(N2CCN(C(=O)c3ccc4c(=O)n(-c5ccccc5)c(=O)[nH]c4c3)CC2)cc1 | active: 23.1 µM | –
31 | Cc1oc(-c2ccc(Cl)cc2)nc1CN1CCCC(C(=O)NCCCN2CCOCC2)C1 (configuration not stated) | inconclusive: 16.4 µM [inhibitor, partial curve] | –
32 | Cc1ccc(-c2nc3cc(N)ccc3o2)c(C)c1 | inconclusive: 1.41 µM [activator, full curve] | –
33 | COc1cc(-c2nnc(-c3cccs3)o2)cc(OC)c1OC | inconclusive: 25.9 µM [inhibitor, single point] | –
34 | Clc1cc(CSc2ccccc2)nc(-c2ccccc2)n1 | – | inactive: 11.7%
35 | Cc1noc(C)c1COc1ccc(C(=O)Nc2ncccc2O)cc1 | inconclusive: 23.1 µM [activator, single point] | –
36 | O=C(c1cnn(-c2ccc(Cl)cc2)c1)c1ccccc1O | inconclusive: 14.6 µM [activator, partial curve] | –
37 | COc1cc(C)ccc1OCCCOc1c(Cl)cccc1Cl | inconclusive: 18.4 µM [activator, partial curve, poor fit] | –
38 | COC1=C(Nc2ccccc2OC)C(=O)c2ccccc2C1=O | inconclusive: 9.2 µM [inhibitor, partial curve] | –
39 | COc1ccc(CCn2c(N)c(S(=O)(=O)c3cccs3)c3nc4ccccc4nc32)cc1OC | inconclusive: 23.1 µM [inhibitor, partial curve] | –
40 | Cc1c(C(=O)N2CCOCC2)oc2ccccc12 | inconclusive: 25.9 µM [activator, single point] | –
41 | O=C(Cn1c(COc2ccccc2)nc2ccccc21)Nc1cc(Cl)ccc1Cl | inconclusive: 20.6 µM [activator, partial curve, poor fit] | –
42 | COc1cc2c(cc1OC)C(c1ccccc1N)=NCC2 | – | inactive: 6.08%
43 | COC(=O)N/N=C(\C)c1cccs1 | inconclusive: 23.1 µM [activator, single point] | –
44 | O=c1[nH]c2cc3c(cc2cc1C(c1nnnn1Cc1ccccc1)N1CCCCCC1)OCCO3 (configuration not stated) | inconclusive: 23.1 µM [inhibitor, partial curve, poor fit] | –
45 | C=C(C)Cn1c(SCC(=O)N/N=C/c2cccc(O)c2)nc2ccccc2c1=O | active: 20.6 µM | –
46 | C/C=C\C=C/C(=O)Nc1cccc(C2=NOC3(C2)C[C@@H](C(N)=O)N(C(=O)/C=C/C=C\C)C3)c1 (some centres not stated) | inconclusive: 25.9 µM [activator, single point] | –

Row | Structure (SMILES) | Potency | activity change, negative = inhibition
47 | O=C(CN1CCOCC1)Nc1ccccc1Cl | inconclusive: 16.4 µM [activator, partial curve, poor fit] | –
48 | COc1ccc(CC(=O)N2CCC(Nc3nc4ccccc4n3Cc3ccc(F)cc3)CC2)cc1 | active: 20.6 µM | –
49 | O=C(Nc1ccon1)c1ccc(N2CCCCC2)c([N+](=O)[O-])c1 | inconclusive: 2.91 µM [activator, full curve] | –
50 | Cc1cccc(Nc2nc(N)nc(CCl)n2)c1C | active: 9.2 µM | –
51 | N#CC1=C(N)C(C#N)(C#N)C(c2ccncc2)C2CN(C(=O)OCc3ccccc3)CC=C12 (configuration not stated) | – | inactive: -25.2%
52 | COC(=O)c1cc(OC)c(OC)cc1NC(=S)N1CCN(c2ccccc2)CC1 | inconclusive: 18.4 µM [inhibitor, single point] | –
53 | O=c1oc2ccccc2cc1NCc1ccccc1O | inconclusive: 13 µM [activator, partial curve] | –
54 | NS(=O)(=O)c1ccc(N2CCOCC2)c(C(=O)NCCCSc2ccccc2)c1 | inconclusive: 29.1 µM [inhibitor, single point] | –
55 | CCOc1ccccc1OCCC(=O)Nc1ccc2c(c1)OCO2 | inconclusive: 20.6 µM [inhibitor, partial curve, poor fit] | –
56 | O=C(NCC1CCCO1)c1cc(-c2ccccc2)on1 (configuration not stated) | inconclusive: 11.6 µM [activator, partial curve] | –
57 | COc1ccc(CCNC(=O)CCCOc2cccc(C)c2C)cc1OC | inconclusive: 18.3 µM [inhibitor, single point] | –
58 | CSCC(C)N1CCC(CCC(=O)NC2CC2)CC1 (configuration not stated) | – | inactive: 3.4%
59 | O=[N+]([O-])c1ccc(N2CCNCC2)c(S(=O)(=O)N2CCOCC2)c1 | inconclusive: 29.1 µM [activator, partial curve, poor fit] | –
60 | O=C(OCc1nnc(-c2ccccc2)o1)c1cccc(S(=O)(=O)N2CCOCC2)c1 | inconclusive: 1.16 µM [inhibitor, single point] | –
61 | O=C(O)c1ccc(C(=O)Nc2ccc(F)cc2)cc1 | inconclusive: 7.08 µM [activator, single point] | –
62 | Cc1cc(O)cc(O)c1C=NCc1ccco1 | inconclusive: 11.6 µM [inhibitor, partial curve, poor fit] | –
63 | CCOC(=O)c1[nH]c(C)c(C(=O)OCc2ccccc2F)c1C | inconclusive: 3.26 µM [inhibitor, partial curve, poor fit] | –
64 | O=C(NCCSCc1c(F)cccc1Cl)c1ccco1 | inconclusive: 18.4 µM [activator, single point] | –
65 | O=C(CSc1ccccc1C(=O)O)c1ccc(Cl)cc1 | inconclusive: 20.6 µM [activator, partial curve] | –
66 | CCOC(=O)N1CCN(c2ccccc2O)CC1 | – | inactive: -2.72%
67 | Cc1cc(O)c(C(=O)/C=C/c2ccccc2Br)c(=O)o1 | inconclusive: 29.1 µM [activator, single point] | –

Reformatted comma-delimited: five of the compounds above
Row,Structure (SMILES),Potency,"activity change, negative = inhibition"
58,CSCC(C)N1CCC(CCC(=O)NC2CC2)CC1 (configuration not stated),–,inactive: 3.4%
59,O=[N+]([O-])c1ccc(N2CCNCC2)c(S(=O)(=O)N2CCOCC2)c1,"inconclusive: 29.1 µM [activator, partial curve, poor fit]",–
60,O=C(OCc1nnc(-c2ccccc2)o1)c1cccc(S(=O)(=O)N2CCOCC2)c1,"inconclusive: 1.16 µM [inhibitor, single point]",–
61,O=C(O)c1ccc(C(=O)Nc2ccc(F)cc2)cc1,"inconclusive: 7.08 µM [activator, single point]",–
62,Cc1cc(O)cc(O)c1C=NCc1ccco1,"inconclusive: 11.6 µM [inhibitor, partial curve, poor fit]",–

— PubChem BioAssay AID504467 (National Center for Advancing Translational Sciences (NCATS), 2011)
